No constants are given. Whether binding was seen depends on the method and setting. Binding seen in cells or lysates may run through a third protein. Some binding calls cover weakened binding; strength is not graded here. Values belong to the binder of their own block, whether it stands above or below them.
Tests used:
[1] = biological target: T1, apoptosis-associated speck-like protein containing a caspase recruitment domain (ASC) (mouse (endogenous in brain cortex of C57BL/6 mice)), Q9EPB4; experiment: co-IP; 2 ug anti-ASC antibody added to 100 uL brain cortical lysate of young and aged mice, Protein G MicroBeads, u Column, rinsed with lysis buffer and RIPA buffer, eluted with hot Laemmli buffer, immunoblot; settings: remark: other sources report otherwise
T1 chain: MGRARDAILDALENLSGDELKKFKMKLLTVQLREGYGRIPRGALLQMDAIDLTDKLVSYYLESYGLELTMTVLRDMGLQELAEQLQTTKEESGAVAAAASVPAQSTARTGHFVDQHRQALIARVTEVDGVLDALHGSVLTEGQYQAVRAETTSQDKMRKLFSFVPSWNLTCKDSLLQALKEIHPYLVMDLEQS

[2] = biological target: T2, apoptosis-associated speck-like protein containing a caspase recruitment domain (ASC) (mouse (endogenous in brain cortex of C57BL/6 mice)) (UniProt Q9EPB4); experiment: as above
T2 sequence: T1 chain

- binding [1]: binds
B1: caspase-8, O89110 1-480 (protein)
chain: MDFQSCLYAIAEELGSEDLAALKFLCLDYIPHKKQETIEDAQKLFLRLREKGMLEEGNLSFLKELLFHISRWDLLVNFLDCNREEMVRELRDPDNAQISPYRVMLFKLSEEVSELELRSFKFLLNNEIPKCKLEDDLSLLEIFVEMEKRTMLAENNLETLKSICDQVNKSLLGKIEDYERSSTERRMSLEGREELPPSVLDEMSLKMAELCDSPREQDSESRTSDKVYQMKNKPRGYCLIINNHDFSKAREDITQLRKMKDRKGTDCDKEALSKTFKELHFEIVSYDDCTANEIHEILEGYQSADHKNKDCFICCILSHGDKGVVYGTDGKEASIYDLTSYFTGSKCPSLSGKPKIFFIQACQGSNFQKGVPDEAGFEQQNHTLEVDSSSHKNYIPDEADFLLGMATVKNCVSYRDPVNGTWYIQSLCQSLRERCPQGDDILSILTGVNYDVSNKDDRRNKGKQMPQPTFTLRKKLFFPP

- binding [2]: binds
B2: caspase-1 (protein, UniProt P29452 1-402)
chain: MADKILRAKRKQFINSVSIGTINGLLDELLEKRVLNQEEMDKIKLANITAMDKARDLCDHVSKKGPQASQIFITYICNEDCYLAGILELQSAPSAETFVATEDSKGGHPSSSETKEEQNKEDGTFPGLTGTLKFCPLEKAQKLWKENPSEIYPIMNTTTRTRLALIICNTEFQHLSPRVGAQVDLREMKLLLEDLGYTVKVKENLTALEMVKEVKEFAACPEHKTSDSTFLVFMSHGIQEGICGTTYSNEVSDILKVDTIFQMMNTLKCPSLKDKPKVIIIQACRGEKQGVVLLKDSVRDSEEDFLTDAIFEDDGIKKAHIEKDFIAFCSSTPDNVSWRHPVRGSLFIESLIKHMKEYAWSCDLEDIFRKVRFSFEQPEFRLQMPTADRVTLTKRFYLFPGH
